The results in this text go back to PMC9308268.

By UniProt entry, the sequences of proteins in these tests, tags left out.
UniProt P60953: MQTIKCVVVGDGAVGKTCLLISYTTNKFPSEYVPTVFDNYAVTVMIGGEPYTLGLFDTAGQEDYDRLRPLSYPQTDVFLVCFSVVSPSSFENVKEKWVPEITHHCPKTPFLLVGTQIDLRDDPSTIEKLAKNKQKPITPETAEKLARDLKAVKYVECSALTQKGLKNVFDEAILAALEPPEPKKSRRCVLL

Assay [1] deals with T1, Rho guanine nucleotide exchange factor 37 (ARHGEF37), wild type, Flag-tagged (human) (UniProt A1IGU5).
T1 sequence: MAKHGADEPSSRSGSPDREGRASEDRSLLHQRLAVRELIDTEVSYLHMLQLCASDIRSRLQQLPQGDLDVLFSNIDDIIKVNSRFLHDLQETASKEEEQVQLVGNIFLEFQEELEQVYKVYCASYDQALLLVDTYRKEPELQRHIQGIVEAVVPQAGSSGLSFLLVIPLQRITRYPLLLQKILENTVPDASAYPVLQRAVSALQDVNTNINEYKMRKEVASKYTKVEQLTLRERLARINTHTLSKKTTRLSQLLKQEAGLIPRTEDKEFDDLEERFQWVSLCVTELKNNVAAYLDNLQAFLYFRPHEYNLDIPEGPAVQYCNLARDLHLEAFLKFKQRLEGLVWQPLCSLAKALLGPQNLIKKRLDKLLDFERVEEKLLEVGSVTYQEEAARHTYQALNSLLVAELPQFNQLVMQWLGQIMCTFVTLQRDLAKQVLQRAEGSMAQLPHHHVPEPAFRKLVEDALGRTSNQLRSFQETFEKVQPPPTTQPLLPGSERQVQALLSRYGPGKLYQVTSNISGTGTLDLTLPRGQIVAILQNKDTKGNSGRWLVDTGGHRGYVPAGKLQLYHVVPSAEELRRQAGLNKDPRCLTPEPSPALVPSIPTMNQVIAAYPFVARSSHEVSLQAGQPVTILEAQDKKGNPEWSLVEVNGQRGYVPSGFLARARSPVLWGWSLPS
Kind of assay: co-IP; anti-Flag antibody cross-linked to protein G-agarose beads, overnight at 4 °C; lysis buffer 25 mmol/L HEPES pH 7.4, 150 mmol/L NaCl, 1% NP-40, 1 mmol/L EDTA, 2% glycerol; wild-type and serially truncated ARHGEF37 in the indicated cells.

Assay [2] addresses T1, Rho guanine nucleotide exchange factor 37 (ARHGEF37), wild type, Flag-tagged (human). Kind of assay: far-Western; immunoprecipitated proteins separated by SDS-PAGE and transferred to a PVDF membrane; recombinant Cdc42 added at 3 ug/mL, 4 °C, 18 hours; detected with anti-Cdc42 antibody, reblotted with anti-ARHGEF37 antibody; both purified.

Results are given in words; binding and its absence hold for the method and conditions named. For some assays here: Binding seen in cells or lysates may run through a third protein. Some binding calls cover weakened binding; strength is not graded here. Sequences can lack the tags named with a protein.

In the case of “Cdc42 in cell lysate (co-immunoprecipitation) (from UniProt P60953 1-191)”, in assay [1], the binding entry is “binds”.
Regarding “Human recombinant Cdc42 protein (from UniProt P60953 1-191)”, the binding entry in assay [2] is on record as “binds”.
